In PMC3226675:

B1: Upf1, endogenous in 293F cells (protein, UniProt Q92900 1-1129)
chain: MSVEAYGPSSQTLTFLDTEEAELLGADTQGSEFEFTDFTLPSQTQTPPGGPGGPGGGGAGGPGGAGAGAAAGQLDAQVGPEGILQNGAVDDSVAKTSQLLAELNFEEDEEDTYYTKDLPIHACSYCGIHDPACVVYCNTSKKWFCNGRGNTSGSHIVNHLVRAKCKEVTLHKDGPLGETVLECYNCGCRNVFLLGFIPAKADSVVVLLCRQPCASQSSLKDINWDSSQWQPLIQDRCFLSWLVKIPSEQEQLRARQITAQQINKLEELWKENPSATLEDLEKPGVDEEPQHVLLRYEDAYQYQNIFGPLVKLEADYDKKLKESQTQDNITVRWDLGLNKKRIAYFTLPKTDSGNEDLVIIWLRDMRLMQGDEICLRYKGDLAPLWKGIGHVIKVPDNYGDEIAIELRSSVGAPVEVTHNFQVDFVWKSTSFDRMQSALKTFAVDETSVSGYIYHKLLGHEVEDVIIKCQLPKRFTAQGLPDLNHSQVYAVKTVLQRPLSLIQGPPGTGKTVTSATIVYHLARQGNGPVLVCAPSNIAVDQLTEKIHQTGLKVVRLCAKSREAIDSPVSFLALHNQIRNMDSMPELQKLQQLKDETGELSSADEKRYRALKRTAERELLMNADVICCTCVGAGDPRLAKMQFRSILIDESTQATEPECMVPVVLGAKQLILVGDHCQLGPVVMCKKAAKAGLSQSLFERLVVLGIRPIRLQVQYRMHPALSAFPSNIFYEGSLQNGVTAADRVKKGFDFQWPQPDKPMFFYVTQGQEEIASSGTSYLNRTEAANVEKITTKLLKAGAKPDQIGIITPYEGQRSYLVQYMQFSGSLHTKLYQEVEIASVDAFQGREKDFIILSCVRANEHQGIGFLNDPRRLNVALTRARYGVIIVGNPKALSKQPLWNHLLNYYKEQKVLVEGPLNNLRESLMQFSKPRKLVNTINPGARFMTTAMYDAREAIIPGSVYDRSSQGRPSSMYFQTHDQIGMISAGPSHVAAMNIPIPFNLVMPPMPPPGYFGQANGPAAGRGTPKGKTGRGGRQKNRFGLPGPSQTNLPNSQASQDVASQPFSQGALTQGYISMSQPSQMSQPGLSQPELSQDSYLGDEFKSQIDVALSQDSTYQGERAYQHGGVTGLSQY
B2: Mov10, endogenous in 293F cells (protein, UniProt Q9HCE1 1-1003)
chain: MPSKFSCRQLREAGQCFESFLVVRGLDMETDRERLRTIYNRDFKISFGTPAPGFSSMLYGMKIANLAYVTKTRVRFFRLDRWADVRFPEKRRMKLGSDISKHHKSLLAKIFYDRAEYLHGKHGVDVEVQGPHEARDGQLLIRLDLNRKEVLTLRLRNGGTQSVTLTHLFPLCRTPQFAFYNEDQELPCPLGPGECYELHVHCKTSFVGYFPATVLWELLGPGESGSEGAGTFYIARFLAAVAHSPLAAQLKPMTPFKRTRITGNPVVTNRIEEGERPDRAKGYDLELSMALGTYYPPPRLRQLLPMLLQGTSIFTAPKEIAEIKAQLETALKWRNYEVKLRLLLHLEELQMEHDIRHYDLESVPMTWDPVDQNPRLLTLEVPGVTESRPSVLRGDHLFALLSSETHQEDPITYKGFVHKVELDRVKLSFSMSLLSRFVDGLTFKVNFTFNRQPLRVQHRALELTGRWLLWPMLFPVAPRDVPLLPSDVKLKLYDRSLESNPEQLQAMRHIVTGTTRPAPYIIFGPPGTGKTVTLVEAIKQVVKHLPKAHILACAPSNSGADLLCQRLRVHLPSSIYRLLAPSRDIRMVPEDIKPCCNWDAKKGEYVFPAKKKLQEYRVLITTLITAGRLVSAQFPIDHFTHIFIDEAGHCMEPESLVAIAGLMEVKETGDPGGQLVLAGDPRQLGPVLRSPLTQKHGLGYSLLERLLTYNSLYKKGPDGYDPQFITKLLRNYRSHPTILDIPNQLYYEGELQACADVVDRERFCRWAGLPRQGFPIIFHGVMGKDEREGNSPSFFNPEEAATVTSYLKLLLAPSSKKGKARLSPRSVGVISPYRKQVEKIRYCITKLDRELRGLDDIKDLKVGSVEEFQGQERSVILISTVRSSQSFVQLDLDFNLGFLKNPKRFNVAVTRAKALLIIVGNPLLLGHDPDWKVFLEFCKENGGYTGCPFPAKLDLQQGQNLLQGLSKLSPSTSGPHSHDYLPQEREGEGGLSLQVEPEWRNEL

Biological target: GST-fused Stau2 (rat Staufen2, isoform Stau2^59) (rat)
Test: affinity purification with mass spectrometry; GST-Stau2 or GST precipitated with glutathione-Sepharose 4B from extracts of stable 293F cell lines; lysis buffer 20 mM Tris-HCl pH 7.5, 150 mM NaCl, 1 mM DTT, 0.5% Tween 20, 20 ug/ml RNase A; 2 h at 4 C; eluted with reduced glutathione; SDS-PAGE, silver staining, bands identified by mass spectrometry and by Western blotting

Binder | binding
B1 | binds
B2 | binds

No constants are given. Whether binding was seen depends on the method and setting. In cells and extracts the contact can be indirect. These calls come from enrichment with a bait or labelling near it, and not all partners need be listed.
